Here are results for two sequences from PMC5913336, “True equilibrium measurement of transcription factor-DNA binding affinities using automated polarization microscopy”.

Construct, isoform or probe ends are uncertain for at least one entry. For some assays here: At least one verdict was read from the data and is not stated in words by the source. Tags and fusion partners may be left off the protein sequences shown.

In data set [1] the target is T1, Bicoid DBD-GST (Bcd) (UniProt P09081).
T1 sequence (looked up, limits assumed): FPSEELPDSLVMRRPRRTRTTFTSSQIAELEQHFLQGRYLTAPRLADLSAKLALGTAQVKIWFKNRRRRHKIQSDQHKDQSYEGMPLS
The experiment in a line: fluorescence anisotropy. Particulars: labeled reference, displaced by competitors; HiP-FA: 33 mM phosphate pH 7.0, 90 mM NaCl, 0.01% Tween 20, 0.1 mM DTT, 0.5% agarose; conventional titration and EMSA: 20 mM Tris-acetate pH 7.0, 50 nM (sic) NaCl; recombinant protein; protein details: N-terminal GST; label: 5' Cy5 on strand 1.

Data set [2] addresses T1, Bicoid DBD-GST (Bcd). The experiment in a line: competitive fluorescence anisotropy (HiP-FA). The settings on record: near-complete loss of binding; HiP-FA: 33 mM phosphate pH 7.0, 90 mM NaCl, 0.01% Tween 20, 0.1 mM DTT, 0.5% agarose; conventional titration and EMSA: 20 mM Tris-acetate pH 7.0, 50 nM (sic) NaCl; recombinant protein; protein details: N-terminal GST. (A gel shift assay detects complexes by their altered migration in electrophoresis.)

In the case of “TCGACGCTAAGCTGTA (double strand) [Bcd Cy5 reference DNA]”, the binding result in data set [1] is “binds”.

What is called Kd is the concentration at which binding is half-saturated. “TCGACTCCACAGCCTA (double strand) [Bcd heavily mutated competitor]”: the Kd in data set [2] was 2200 nM.
